Drawing on PubChem BioAssay AID1347423 (Functional Genomics Laboratory (NCATS/FGL), 2020), this text covers z-score for 66 sequences.

The whole screen tested about 52,000 sequences, of which about 210 (0.4%) were called active.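 How the source made its calls: active means gene whose silencing raises cell survival under the drug, median off-target-corrected z-score across its silencing RNAs 2 or more; inactive means the rest.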 This is one part of the list.

A short description of the assay: Resistance to Poly (ADP-Ribose) Polymerase inhibitor: Gene Identification via Genome-wide siRNA Screen. Conditions: mouse BRCA2 R2336H ES cells, olaparib, CellTiter-Glo viability; hits give high values. A digest of the protocol: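 Mouse BRCA2 R2336H ES cells were reverse-transfected with siRNA (20 nM final), treated at 48 h with 500 nM olaparib, and read by CellTiter-Glo after 72 h. Scores: MAD-based z per siRNA, median per gene, seed off-target correction.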
Turning to “CCCAUUCACUCAUCACAUGTT against F630003A18Rik”, the z-score was inactive: -0.0848.
The value for GGGCAAUUUGUUCGACCCATT against Abca2 was inactive: -0.957; that for GGAGAAAAUGAAGAAGGAATT against Taf5 was inactive: -1.31; that for CGUAUUAUCUGAGUGAACATT against Fth1 was inactive: 0.892.
Turning to “GGAACUCAUGUGAAGCUCCTT against 1500011L16Rik”, the z-score was inactive: 0.982.
The same measure for GGUUGCAUUUCCAAAAACUTT against Gng10: inactive: 0.166.
Regarding GGCAGGUACAGAAACAGUUTT against Olfr432, the z-score was inactive: -1.19.
The same measure for GGAAGCCAAACAGUUAUUUTT against Etohi2: inactive: -0.253.
For “GGAUUAAGAAAGAAACAGGTT against B830013J05Rik”, the z-score is inactive: -0.0834.
Regarding CCCAAAUUGAUCUCAGAGATT against Cdc42, the z-score is inactive: 0.424.
The value for CGAAUAGUAGAAGAAACUCTT against Osgepl1 was inactive: -0.524.
With GGAAGAUACGUGCAAAAUGTT against Rbms2, the z-score is inactive: 1.33.
As for “GGUUGGUAGACUGUGCUUGTT against D8Ertd354e”, the z-score was inactive: -0.188.
Regarding “GGUACUUGUACUAAUCGCUTT against A330042H22”, the z-score is inactive: 1.01.
The value for GGAAGAGGAGGGAAGGAUCTT against Robo3 was inactive: -1.39.
The value for GGAUGAAGUUUACCACCUGTT against Ptgir was inactive: 1.23.
Turning to GCUAUUGUGUAUUUUCCAATT against BC042513, the z-score was inactive: 0.00924.
Take GGACUAUGUGGCCCAGUGUTT against Cml5: the z-score was inactive: -0.531.
On to CCCAGACUCAGUUUUAACUTT against Ssb4, for which the z-score was inactive: -0.251.
The value for GGUAAGGACUAUUUGAAUUTT against Edg2 was inactive: 0.57; that for “CGUGCCAGACCUAUAGCUUTT against B930074I24” was inactive: 0.374.
As for GGUCUUAAAGCAUGAGAAGTT against Med8, the z-score was inactive: 0.253.
As for “GCACUACCAAGGCGAUAACTT against 6720430O15”, the z-score is inactive: -0.132.
The same measure for GGCCUUGGCAAUUAUUUGUTT against Syap1: inactive: 0.248; for GCCUUAUUUGAAAUACAGATT against AU021107: inactive: -1.29.
The same measure for GGUUUUCACCAAUCGGAUGTT against H2-T24: inactive: -0.593; for “GCACAAGAGGUAUCCUUGCTT against A630038D02”: inactive: -0.381.
For the sequence “GCCGACAACACAAAAUUAUTT against 2310075A12Rik”, the z-score was inactive: 0.828.
The value for “GGUUCUAGACAAACAUUUUTT against 4930522D07Rik” was inactive: -1.42.
As to CGAAGCACAUAUCUUUGAUTT against Zfp41, the z-score was inactive: 1.64.
The value for GAAGUCCUGAAGAAGCUCATT against Cart was inactive: 1.32; that for “GGUACAUGAAUUCCAAUACTT against 4832412O06Rik” was inactive: 1.06; that for GGAAUUCCUUCACAUCUGGTT against Mtac2d1 was inactive: 0.146.
The value for GCGAUGAUAAGUGCCUGGUTT against Stk31 was inactive: -0.901.
The value for GGUCUACGUAGAGGAGCUGTT against Mrpl28 was inactive: -1.76.
Turning to GGUAUUGGAUCAUUUACAATT against Appbp1, the z-score was inactive: -0.406.
With GUUUACCUCAGCUGUUUUCTT against Olfr495, the z-score is inactive: 2.14.
For the sequence “GGAUGAAUGUUGCUUGUGUTT against 4933429F08Rik”, the z-score was inactive: -0.322.
Take GCUCCUCCAUCAGUUAGAUTT against Ube2v2: the z-score is inactive: 0.246.
GGGUGUCUUACACCUUACATT against Sertad2: the z-score is inactive: -0.572.
On to GGAUUCAUAAACUUGUGUGTT against Atic, for which the z-score was inactive: -0.0486.
On to GGGUGACCUAAUCCAGUGUTT against Neurog3, for which the z-score was inactive: 0.779.
Take GGCUAGCUACACAGUCUCATT against Plscr2: the z-score is inactive: -0.00856.
The same measure for GCUCAUCUCGAUUUGACUGTT against Cln3: inactive: -0.183; for “GGGACAUAUUGUUUCCCUUTT against 4930563P21Rik”: inactive: -0.817; for “GGGCAAAUGAAAACAAGAATT against 4933434M16Rik”: inactive: 0.754.
As to CCUGUAACCAGUAUAAAUATT against Fmo3, the z-score was inactive: -1.04.
The value for “GGGAAUUACUGUUUCUGUCTT against E030041M21Rik” was inactive: 0.962; that for CGCAAGGACCGAUCUGAUGTT against Rnps1 was inactive: -0.254.
The same measure for GGUUUGAAAGUUCUUUUGUTT against Zcsl2: inactive: -0.239.
Take “GCUCACAGCAGCAUUUUACTT against 1700034H15Rik”: the z-score was inactive: 0.39.
The same measure for GGUGGGAAGAGUUUCAUCATT against Tesk2: inactive: 1.38.
The same measure for “GGAGGAAUAUCAGUCCCUGTT against 1110021H02Rik”: inactive: -1.3.
The value for CCACAUAUAUCAACAAGCUTT against Olfr916 was inactive: 0.479; that for “GCCUAGGUGACCUAAACUATT against D830014E11Rik” was inactive: -0.0722.
Consider GGAGUUUCCCUCAAGAAAATT against Tgfbr3, for which the z-score was inactive: 2.42.
The value for GGCAGCCAAAUAUGGUGCUTT against Eln was inactive: 1.85; that for GGAUUGCAUCUUCCUCGAATT against Olfr816 was inactive: -0.676.
GGAAGGUGACAAGCACACCTT against S100a6: the z-score is inactive: 1.68.
For GGAAAUGUGGAAUACACCGTT against Prlpf, the z-score was inactive: -0.98.
Consider “GGUCUUACGAGUAUUUUUUTT against 0610013E23Rik”, for which the z-score is inactive: 1.06.
Take “GCACUUGUGACUUAUUGGATT against 4930518C23Rik”: the z-score was inactive: -0.955.
The same measure for GCGCGAGGAAUUGAAACUCTT against Gna15: inactive: 1.28.
Turning to GGCGAGUGUGCAGAAGUUUTT against Ifi44, the z-score is inactive: 1.11.
Take GGAUGUGGAGAUGAAAGAGTT against Psmd3: the z-score is inactive: -2.9.
In the case of “GGAGGAUUUCAAGACAGCATT against 5430420C16Rik”, the z-score is inactive: 0.0169.
